Measurements reported in US20180147767A1, “METHODS OF EXTRUDING MULTILAYER FIBERS” (THE BOARD OF TRUSTEES OF UNIVERSITY OF ILLINOIS, priority 2015, published 2018).
For at least one compound, name, drawing or mass did not settle the structure.

How the values were obtained:
[1] = test system: RAW 264.7 mouse macrophage cells and MDA-MB-231 human adenocarcinoma cells; assay: Co-localization and migration of macrophages and tumor cells co-cultured in multilayer alginate fibers (CellTracker confocal imaging, Pearson correlation factor, Coloc2); assay type: cell-based
Source text: Using CellTracker™-labeling and confocal fluorescence microscopy to quantify the co-localization of the tumor cells and macrophages in co-culture over time (FIG. 8). To calculate correlation factor, ImageJ Fiji with the Coloc2 plugin may be utilized. The images are split into separate channels for macrophages (a) and breast cancer (b) cells and despeckled to remove noise.

[2] = read-out: approximate IC50; cited from earlier work

For `O=P(O)(O)C(O)(Cn1ccnc1)P(=O)(O)O` [ZA, zoledronic acid], the “calculated correlation factor (Pearson)” value ([1]; Day 4, drug at approximate IC50: 50 μM for ZA and Rac1, 50 nM for GEF) is given as “decreases”, the “migration and co-localization of macrophages with tumor cells” value ([1]; co-cultured fibers, four days of incubation, FIG. 6a) is given as “distinct impairment of migration and co-localization” and the IC50 [2] is given as ~50 µM.
